# Results as given in the supplement of paper PMC10849652.
# Amino acid sequences for entries named in this document (tags omitted). A change or cut given only in a name is not applied to a line headed by its entry.
# UniProt Q6WCQ1: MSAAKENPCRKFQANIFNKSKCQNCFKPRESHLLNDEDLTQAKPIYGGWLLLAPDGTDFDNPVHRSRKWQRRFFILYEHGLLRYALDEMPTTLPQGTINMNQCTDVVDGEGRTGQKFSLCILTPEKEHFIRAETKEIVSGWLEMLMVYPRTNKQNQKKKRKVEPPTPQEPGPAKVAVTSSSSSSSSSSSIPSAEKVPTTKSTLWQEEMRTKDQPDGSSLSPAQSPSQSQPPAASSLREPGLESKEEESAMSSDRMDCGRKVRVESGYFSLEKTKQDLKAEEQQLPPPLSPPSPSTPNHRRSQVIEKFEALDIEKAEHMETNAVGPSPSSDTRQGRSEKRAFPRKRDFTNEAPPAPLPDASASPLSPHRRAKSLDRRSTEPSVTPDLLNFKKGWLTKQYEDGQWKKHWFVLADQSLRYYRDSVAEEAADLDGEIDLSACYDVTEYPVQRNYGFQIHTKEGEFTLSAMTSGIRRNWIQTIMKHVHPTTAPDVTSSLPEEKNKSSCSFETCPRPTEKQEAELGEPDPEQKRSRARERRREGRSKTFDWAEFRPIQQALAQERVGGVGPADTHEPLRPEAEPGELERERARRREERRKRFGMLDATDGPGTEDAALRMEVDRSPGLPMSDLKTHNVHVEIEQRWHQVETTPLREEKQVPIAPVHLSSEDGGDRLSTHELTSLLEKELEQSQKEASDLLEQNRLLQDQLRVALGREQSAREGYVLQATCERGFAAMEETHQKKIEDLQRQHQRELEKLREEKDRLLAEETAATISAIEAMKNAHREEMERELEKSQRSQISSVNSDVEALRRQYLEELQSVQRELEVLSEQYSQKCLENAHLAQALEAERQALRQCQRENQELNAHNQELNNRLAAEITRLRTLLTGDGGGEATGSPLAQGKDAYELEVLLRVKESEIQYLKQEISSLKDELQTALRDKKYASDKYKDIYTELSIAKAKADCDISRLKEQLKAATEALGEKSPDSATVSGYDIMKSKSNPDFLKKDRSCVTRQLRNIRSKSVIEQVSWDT
# UniProt Q8NHP6: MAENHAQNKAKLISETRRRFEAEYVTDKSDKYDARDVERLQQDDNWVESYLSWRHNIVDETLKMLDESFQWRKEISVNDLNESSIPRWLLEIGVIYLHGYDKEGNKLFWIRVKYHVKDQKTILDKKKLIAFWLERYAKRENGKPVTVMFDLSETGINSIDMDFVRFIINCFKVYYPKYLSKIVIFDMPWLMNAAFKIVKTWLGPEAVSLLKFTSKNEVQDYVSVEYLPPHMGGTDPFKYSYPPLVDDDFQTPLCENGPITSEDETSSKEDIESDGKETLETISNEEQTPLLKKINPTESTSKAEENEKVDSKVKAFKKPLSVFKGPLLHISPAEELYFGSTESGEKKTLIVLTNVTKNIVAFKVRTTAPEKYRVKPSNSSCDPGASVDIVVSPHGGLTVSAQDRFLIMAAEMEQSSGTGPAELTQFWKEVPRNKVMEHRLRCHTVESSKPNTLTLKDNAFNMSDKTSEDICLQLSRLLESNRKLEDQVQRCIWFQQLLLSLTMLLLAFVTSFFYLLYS
# UniProt Q8N108: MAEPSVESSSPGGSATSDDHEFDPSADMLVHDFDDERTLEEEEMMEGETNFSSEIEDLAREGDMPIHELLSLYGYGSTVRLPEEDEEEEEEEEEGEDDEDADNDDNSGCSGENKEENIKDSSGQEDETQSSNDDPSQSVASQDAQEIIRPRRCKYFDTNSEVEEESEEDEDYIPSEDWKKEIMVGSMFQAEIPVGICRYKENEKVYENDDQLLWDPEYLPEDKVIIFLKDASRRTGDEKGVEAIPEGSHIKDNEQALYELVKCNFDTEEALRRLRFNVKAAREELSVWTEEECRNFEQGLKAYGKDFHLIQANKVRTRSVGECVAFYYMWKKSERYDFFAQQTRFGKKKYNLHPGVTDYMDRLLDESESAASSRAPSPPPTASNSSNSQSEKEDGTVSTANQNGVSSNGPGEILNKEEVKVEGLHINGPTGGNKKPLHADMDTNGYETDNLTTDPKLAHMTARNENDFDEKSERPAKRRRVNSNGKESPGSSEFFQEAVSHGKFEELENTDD
# UniProt Q99549: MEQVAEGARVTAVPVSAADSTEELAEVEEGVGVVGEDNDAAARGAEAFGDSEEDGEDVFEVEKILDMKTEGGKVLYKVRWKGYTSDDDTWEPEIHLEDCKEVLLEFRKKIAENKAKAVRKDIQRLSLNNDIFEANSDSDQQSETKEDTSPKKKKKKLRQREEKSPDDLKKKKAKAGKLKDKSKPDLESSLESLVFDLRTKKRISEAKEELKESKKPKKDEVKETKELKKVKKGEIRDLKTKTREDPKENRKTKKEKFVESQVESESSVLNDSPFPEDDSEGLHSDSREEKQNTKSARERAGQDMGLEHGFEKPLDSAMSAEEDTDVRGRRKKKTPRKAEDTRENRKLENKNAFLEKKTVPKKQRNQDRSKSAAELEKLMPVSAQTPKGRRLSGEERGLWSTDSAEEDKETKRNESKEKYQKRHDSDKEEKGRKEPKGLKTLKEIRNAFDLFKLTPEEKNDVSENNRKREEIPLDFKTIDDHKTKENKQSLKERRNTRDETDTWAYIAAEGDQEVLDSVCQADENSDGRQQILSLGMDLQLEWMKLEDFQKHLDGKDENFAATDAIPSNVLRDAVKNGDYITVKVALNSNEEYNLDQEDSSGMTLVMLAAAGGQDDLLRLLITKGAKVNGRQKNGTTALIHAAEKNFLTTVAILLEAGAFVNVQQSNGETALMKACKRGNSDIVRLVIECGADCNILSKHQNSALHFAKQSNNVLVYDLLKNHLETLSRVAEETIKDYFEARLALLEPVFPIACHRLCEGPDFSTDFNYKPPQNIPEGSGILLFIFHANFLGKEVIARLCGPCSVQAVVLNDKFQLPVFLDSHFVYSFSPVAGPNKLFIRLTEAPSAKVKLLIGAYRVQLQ
# UniProt Q6NTE8: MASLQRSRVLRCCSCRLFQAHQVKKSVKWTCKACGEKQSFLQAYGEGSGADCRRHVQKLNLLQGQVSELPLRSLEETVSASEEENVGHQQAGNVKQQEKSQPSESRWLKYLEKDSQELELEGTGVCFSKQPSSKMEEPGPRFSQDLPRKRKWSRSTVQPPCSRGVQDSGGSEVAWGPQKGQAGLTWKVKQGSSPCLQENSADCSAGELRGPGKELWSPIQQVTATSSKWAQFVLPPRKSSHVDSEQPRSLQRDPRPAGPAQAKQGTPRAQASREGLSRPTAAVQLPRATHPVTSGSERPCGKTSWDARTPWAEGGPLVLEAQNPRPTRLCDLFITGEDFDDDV
# UniProt Q9UNW1: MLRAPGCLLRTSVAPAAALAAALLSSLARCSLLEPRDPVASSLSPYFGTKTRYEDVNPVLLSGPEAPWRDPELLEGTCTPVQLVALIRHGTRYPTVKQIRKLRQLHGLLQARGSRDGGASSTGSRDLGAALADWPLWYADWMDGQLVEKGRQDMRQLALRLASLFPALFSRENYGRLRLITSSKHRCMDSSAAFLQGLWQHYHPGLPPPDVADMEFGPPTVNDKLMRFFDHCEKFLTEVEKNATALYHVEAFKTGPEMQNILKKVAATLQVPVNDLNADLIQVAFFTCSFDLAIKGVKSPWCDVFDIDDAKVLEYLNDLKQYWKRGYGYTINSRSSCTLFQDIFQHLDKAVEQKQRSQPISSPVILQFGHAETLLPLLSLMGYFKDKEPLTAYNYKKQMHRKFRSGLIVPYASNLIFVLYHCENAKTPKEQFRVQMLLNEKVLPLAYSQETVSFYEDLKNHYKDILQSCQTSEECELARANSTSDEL
# UniProt Q9BUB5: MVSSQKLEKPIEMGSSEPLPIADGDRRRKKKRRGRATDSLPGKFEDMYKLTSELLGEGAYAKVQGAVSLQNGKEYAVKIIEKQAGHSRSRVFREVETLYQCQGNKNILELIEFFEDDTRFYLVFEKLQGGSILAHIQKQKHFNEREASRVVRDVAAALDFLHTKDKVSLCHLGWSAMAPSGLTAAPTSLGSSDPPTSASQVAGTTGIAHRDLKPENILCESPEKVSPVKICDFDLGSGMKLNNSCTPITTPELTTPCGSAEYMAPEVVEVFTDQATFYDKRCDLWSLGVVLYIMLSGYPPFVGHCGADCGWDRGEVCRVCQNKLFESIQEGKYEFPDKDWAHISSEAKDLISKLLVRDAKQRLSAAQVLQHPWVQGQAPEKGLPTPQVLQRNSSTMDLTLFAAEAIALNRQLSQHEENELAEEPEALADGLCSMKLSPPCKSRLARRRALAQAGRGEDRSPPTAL
# UniProt Q99797: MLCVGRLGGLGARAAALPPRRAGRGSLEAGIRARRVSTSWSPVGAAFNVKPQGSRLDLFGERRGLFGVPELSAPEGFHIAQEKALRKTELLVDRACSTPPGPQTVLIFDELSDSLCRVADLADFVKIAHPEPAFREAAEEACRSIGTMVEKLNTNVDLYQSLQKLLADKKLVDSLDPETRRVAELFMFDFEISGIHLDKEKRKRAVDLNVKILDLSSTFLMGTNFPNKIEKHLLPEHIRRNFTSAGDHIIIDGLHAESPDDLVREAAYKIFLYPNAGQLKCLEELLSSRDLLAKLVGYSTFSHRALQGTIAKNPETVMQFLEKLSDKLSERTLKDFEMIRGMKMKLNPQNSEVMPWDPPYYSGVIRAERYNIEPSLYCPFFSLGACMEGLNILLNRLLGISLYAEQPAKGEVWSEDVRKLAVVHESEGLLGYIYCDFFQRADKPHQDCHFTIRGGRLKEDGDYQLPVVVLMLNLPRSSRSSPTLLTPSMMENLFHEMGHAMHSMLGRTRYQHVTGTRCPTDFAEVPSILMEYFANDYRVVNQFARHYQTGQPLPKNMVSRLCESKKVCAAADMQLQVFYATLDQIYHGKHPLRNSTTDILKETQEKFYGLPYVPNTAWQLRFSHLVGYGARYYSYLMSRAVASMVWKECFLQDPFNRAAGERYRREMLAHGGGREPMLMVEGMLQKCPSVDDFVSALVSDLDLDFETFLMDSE
# UniProt O95297: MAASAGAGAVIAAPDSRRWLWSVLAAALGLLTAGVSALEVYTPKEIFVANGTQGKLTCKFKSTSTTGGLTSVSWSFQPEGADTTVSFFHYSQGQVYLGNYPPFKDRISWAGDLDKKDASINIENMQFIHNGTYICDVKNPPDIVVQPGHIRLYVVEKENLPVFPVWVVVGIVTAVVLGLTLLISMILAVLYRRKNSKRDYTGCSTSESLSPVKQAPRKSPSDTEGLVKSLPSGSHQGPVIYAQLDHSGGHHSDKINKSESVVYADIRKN
# UniProt Q9HC36: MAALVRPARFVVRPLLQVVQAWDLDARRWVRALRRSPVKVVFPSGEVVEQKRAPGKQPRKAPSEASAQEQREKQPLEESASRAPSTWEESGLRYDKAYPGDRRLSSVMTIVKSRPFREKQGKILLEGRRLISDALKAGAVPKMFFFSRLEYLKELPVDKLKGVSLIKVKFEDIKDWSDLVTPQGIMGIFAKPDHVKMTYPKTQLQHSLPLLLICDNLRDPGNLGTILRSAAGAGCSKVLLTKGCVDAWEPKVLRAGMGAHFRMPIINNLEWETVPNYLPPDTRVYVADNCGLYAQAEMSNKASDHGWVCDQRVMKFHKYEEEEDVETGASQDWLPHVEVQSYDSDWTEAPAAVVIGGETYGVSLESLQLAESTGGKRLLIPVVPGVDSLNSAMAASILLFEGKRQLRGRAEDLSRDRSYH
# UniProt Q8N3F8: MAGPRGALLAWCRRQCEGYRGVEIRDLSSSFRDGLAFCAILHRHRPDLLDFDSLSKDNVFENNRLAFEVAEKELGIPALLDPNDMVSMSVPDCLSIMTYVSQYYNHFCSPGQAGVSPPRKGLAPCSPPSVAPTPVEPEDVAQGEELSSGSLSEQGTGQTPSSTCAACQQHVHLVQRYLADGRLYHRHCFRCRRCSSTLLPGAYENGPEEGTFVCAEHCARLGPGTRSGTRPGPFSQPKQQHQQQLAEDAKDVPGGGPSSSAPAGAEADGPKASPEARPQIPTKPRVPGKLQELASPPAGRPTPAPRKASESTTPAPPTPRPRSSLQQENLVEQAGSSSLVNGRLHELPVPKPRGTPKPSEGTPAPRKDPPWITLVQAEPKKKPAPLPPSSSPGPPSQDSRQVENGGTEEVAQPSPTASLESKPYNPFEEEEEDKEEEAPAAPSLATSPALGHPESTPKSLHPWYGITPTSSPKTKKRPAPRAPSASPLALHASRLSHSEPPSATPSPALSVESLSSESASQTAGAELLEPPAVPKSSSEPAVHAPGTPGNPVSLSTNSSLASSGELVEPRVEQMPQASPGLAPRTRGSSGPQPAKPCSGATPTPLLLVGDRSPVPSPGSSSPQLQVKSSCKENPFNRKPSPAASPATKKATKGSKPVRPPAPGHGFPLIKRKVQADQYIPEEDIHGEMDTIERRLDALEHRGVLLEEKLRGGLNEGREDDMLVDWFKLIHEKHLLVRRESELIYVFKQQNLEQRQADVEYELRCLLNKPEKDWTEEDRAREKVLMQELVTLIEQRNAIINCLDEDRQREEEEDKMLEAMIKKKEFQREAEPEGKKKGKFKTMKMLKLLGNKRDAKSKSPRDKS
# This is one part of the list.
# How the values were obtained:
# Experiment in all cases: log2 fold change, soluble protein after heating vs DMSO (PISA); higher = thermal stabilisation; K562 cells, 10 uM, 30 min; active = over 0.2 and 3.5 SD of the protein, either way, in both replicates (recomputed)
# [1] = compound: CC1=C(C=C(C=C1)NC(=O)C2=CC(=CC=C2)C(C)(C)C#N)NC3=CC4=C(C=C3)N=CN(C4=O)C
# In short: (§1)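 Soluble protein was quantified by TMTpro 16plex LC-MS/MS after channel sums were equalised. It was obtained as the supernatant after 21,000xg for 90 min from pooled aliquots of K562 cells (2×10^6 cells/mL, 10 μM compound, 30 min) heated for 3 min across 48°C-58°C and extracted in PBS with 0.5% NP-40 at 4°C. Thermal stability values are relative to control samples and come from duplicates. They are given as log2 fold changes.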
# [2] = compound: CC1=C(C=C(C=C1)NC(=O)C2=CC(=CC=C2)N(C)C)NC(=O)C3=CC=C(C=C3)O
# In short: as §1
# [3] = compound: CC1=CC=C(C=C1)SC2=C3C=C(SC3=CN=C2)C(=O)N
# In short: as §1
# [4] = compound: CC1=NC(=CC=C1)C2=C(N=C(N2)C(C)(C)C)C3=CC4=NC=CN=C4C=C3
# In short: as §1
# Nexturastat A = compound: CCCCN(Cc1ccc(C(=O)NO)cc1)C(=O)Nc1ccccc1 [Nexturastat A]
# In short: as §1
# vemurafenib = compound: CCCS(=O)(=O)Nc1ccc(F)c(C(=O)c2c[nH]c3ncc(-c4ccc(Cl)cc4)cc23)c1F [vemurafenib]
# In short: as §1
# [5] = compound: CCCS(=O)(=O)Nc1ccc(F)c(C(=O)c2c[nH]c3ncc(Cl)cc23)c1F
# In short: as §1
# [6] = compound: CCCc1cc(C)[nH]c(=O)c1CNC(=O)c1cc(-c2ccnc(N3CCN(C)CC3)c2)cc2c1cnn2C(C)C
# In short: as §1
# givinostat = compound: CCN(CC)Cc1ccc2cc(COC(=O)Nc3ccc(C(=O)NO)cc3)ccc2c1 [givinostat]
# In short: as §1
# barasertib = compound: CCN(CCCOc1ccc2c(Nc3cc(CC(=O)Nc4cccc(F)c4)[nH]n3)ncnc2c1)CCOP(=O)(O)O [barasertib]
# In short: as §1
Target,log2 fold change [1],log2 fold change [2],log2 fold change [3],log2 fold change [4],log2 fold change (Nexturastat A),log2 fold change (vemurafenib),log2 fold change [5],log2 fold change [6],log2 fold change (givinostat),log2 fold change (barasertib)
MRPL50 (UniProt Q8N5N7),inactive: -0.09,inactive: -0.04,inactive: 0.175,inactive: -0.031,inactive: 0.208,inactive: 0.034,inactive: 0.244,inactive: -0.058,inactive: 0.05,inactive: -0.057
MRPL15 (UniProt Q9P015),inactive: 0.074,inactive: -0.045,inactive: -0.134,inactive: -0.052,inactive: 0.132,inactive: -0.063,inactive: -0.062,inactive: 0.023,inactive: 0.062,inactive: -0.044
MPRIP isoform 2 (UniProt Q6WCQ1),inactive: -0.026,inactive: -0.017,inactive: 0.042,inactive: -0.279,inactive: 0.178,inactive: -0.032,inactive: 0.079,inactive: -0.259,inactive: -0.014,inactive: 0.149
MOSPD2 (UniProt Q8NHP6),inactive: 0.015,inactive: -0.027,inactive: -0.01,inactive: -0.011,inactive: 0.024,inactive: 0.054,inactive: -0.006,inactive: -0.056,inactive: -0.022,inactive: 0.003
MITD1 (UniProt Q8WV92),inactive: -0.124,inactive: 0.072,inactive: -0.043,inactive: -0.043,inactive: -0.026,inactive: 0.069,inactive: 0,inactive: -0.093,inactive: -0.047,inactive: 0.042
MRPL22 (UniProt Q9NWU5),inactive: 0.011,inactive: -0.074,inactive: -0.084,inactive: -0.157,inactive: 0.304,inactive: -0.142,inactive: -0.051,inactive: -0.011,inactive: 0.154,inactive: -0.026
MRPL16 (UniProt Q9NX20),inactive: 0.019,inactive: -0.036,inactive: -0.069,inactive: -0.047,inactive: 0.059,inactive: -0.095,inactive: 0.009,inactive: 0.04,inactive: 0.001,inactive: -0.045
MMRN1 (UniProt Q13201),inactive: -0.008,inactive: -0.003,,,,,,,,
MRPL40 (UniProt Q9NQ50),inactive: 0.102,inactive: 0.008,inactive: -0.083,inactive: -0.061,inactive: 0.083,inactive: -0.068,inactive: -0.135,inactive: 0.013,inactive: -0.033,inactive: -0.09
MIS12 (UniProt Q9H081),inactive: -0.008,inactive: -0.141,inactive: -0.004,inactive: 0.044,inactive: 0.056,inactive: 0.074,inactive: -0.002,inactive: 0.023,inactive: 0.102,inactive: 0.049
MIER1 isoform 12 (UniProt Q8N108),inactive: 0.003,inactive: 0.016,inactive: 0.002,inactive: 0.012,active: 0.306,inactive: -0.006,inactive: 0.008,inactive: -0.013,active: 0.31,inactive: 0.01
MPHOSPH8 isoform 2 (UniProt Q99549),inactive: -0.159,inactive: 0.179,inactive: -0.159,inactive: -0.022,inactive: -0.013,inactive: -0.02,inactive: -0.1,inactive: -0.002,,
MRPL47 (UniProt Q9HD33),inactive: 0.035,inactive: -0.045,inactive: -0.03,inactive: -0.078,inactive: 0.139,inactive: -0.117,inactive: -0.097,inactive: 0.073,inactive: 0.052,inactive: -0.047
MRPL14 (UniProt Q6P1L8),inactive: 0.076,inactive: 0.031,inactive: 0.066,inactive: -0.05,inactive: -0.13,inactive: 0.025,inactive: -0.017,inactive: 0.039,inactive: 0.104,inactive: -0.026
MRNIP (UniProt Q6NTE8),inactive: 0.107,inactive: 0.031,inactive: -0.003,inactive: 0.046,inactive: -0.023,inactive: 0.159,inactive: -0.01,inactive: 0.004,inactive: 0.265,
MINPP1 (UniProt Q9UNW1),inactive: -0.021,inactive: -0.002,inactive: 0.045,inactive: 0.023,inactive: -0.073,inactive: -0.022,inactive: 0.031,inactive: 0.035,inactive: -0.055,inactive: -0.024

# Already shown: an excerpt of the list.
Target,log2 fold change [1],log2 fold change [2],log2 fold change [3],log2 fold change [4],log2 fold change (Nexturastat A),log2 fold change (vemurafenib),log2 fold change [5],log2 fold change [6],log2 fold change (givinostat),log2 fold change (barasertib)
MOSPD2 (UniProt Q8NHP6),inactive: 0.015,inactive: -0.027,inactive: -0.01,inactive: -0.011,inactive: 0.024,inactive: 0.054,inactive: -0.006,inactive: -0.056,inactive: -0.022,inactive: 0.003
MITD1 (UniProt Q8WV92),inactive: -0.124,inactive: 0.072,inactive: -0.043,inactive: -0.043,inactive: -0.026,inactive: 0.069,inactive: 0,inactive: -0.093,inactive: -0.047,inactive: 0.042
MRPL22 (UniProt Q9NWU5),inactive: 0.011,inactive: -0.074,inactive: -0.084,inactive: -0.157,inactive: 0.304,inactive: -0.142,inactive: -0.051,inactive: -0.011,inactive: 0.154,inactive: -0.026
MRPL16 (UniProt Q9NX20),inactive: 0.019,inactive: -0.036,inactive: -0.069,inactive: -0.047,inactive: 0.059,inactive: -0.095,inactive: 0.009,inactive: 0.04,inactive: 0.001,inactive: -0.045
MMRN1 (UniProt Q13201),inactive: -0.008,inactive: -0.003,,,,,,,,
MRPL40 (UniProt Q9NQ50),inactive: 0.102,inactive: 0.008,inactive: -0.083,inactive: -0.061,inactive: 0.083,inactive: -0.068,inactive: -0.135,inactive: 0.013,inactive: -0.033,inactive: -0.09
MIS12 (UniProt Q9H081),inactive: -0.008,inactive: -0.141,inactive: -0.004,inactive: 0.044,inactive: 0.056,inactive: 0.074,inactive: -0.002,inactive: 0.023,inactive: 0.102,inactive: 0.049
MIER1 isoform 12 (UniProt Q8N108),inactive: 0.003,inactive: 0.016,inactive: 0.002,inactive: 0.012,active: 0.306,inactive: -0.006,inactive: 0.008,inactive: -0.013,active: 0.31,inactive: 0.01
MPHOSPH8 isoform 2 (UniProt Q99549),inactive: -0.159,inactive: 0.179,inactive: -0.159,inactive: -0.022,inactive: -0.013,inactive: -0.02,inactive: -0.1,inactive: -0.002,,

# Remaining list, next part.

Target,log2 fold change [1],log2 fold change [2],log2 fold change [3],log2 fold change [4],log2 fold change (Nexturastat A),log2 fold change (vemurafenib),log2 fold change [5],log2 fold change [6],log2 fold change (givinostat),log2 fold change (barasertib)
MRPL13 (UniProt Q9BYD1),inactive: -0.004,inactive: -0.036,inactive: -0.104,inactive: -0.161,inactive: 0.175,inactive: -0.017,inactive: -0.05,inactive: 0.012,inactive: 0.037,inactive: -0.031
MRPL24 (UniProt Q96A35),inactive: 0.043,inactive: -0.104,inactive: -0.05,inactive: -0.058,inactive: 0.287,inactive: -0.044,inactive: 0.016,inactive: 0.145,inactive: -0.02,inactive: -0.066
MRPL46 (UniProt Q9H2W6),inactive: 0.061,inactive: -0.044,inactive: -0.009,inactive: -0.064,inactive: 0.076,inactive: -0.061,inactive: -0.006,inactive: 0.009,inactive: -0.003,inactive: -0.008
MMS19 isoform 8 (UniProt Q96T76),inactive: -0.022,inactive: -0.029,inactive: 0,inactive: 0.067,inactive: 0.051,inactive: 0.047,inactive: 0.1,inactive: 0.061,inactive: -0.061,inactive: 0.063
MKNK1 (UniProt Q9BUB5),inactive: -0.008,inactive: -0.051,inactive: 0.03,inactive: 0.115,inactive: -0.094,inactive: 0.021,inactive: 0.035,inactive: 0.022,inactive: 0.012,inactive: 0.033
MINDY4 (UniProt Q4G0A6),inactive: -0.004,inactive: -0.08,,,,,,,,
MPDU1 (UniProt O75352),inactive: 0.024,inactive: 0.006,inactive: 0.091,inactive: -0.189,inactive: -0.014,inactive: 0.01,inactive: 0,inactive: -0.12,inactive: 0.072,inactive: 0.019
MIPEP (UniProt Q99797),inactive: -0.001,inactive: 0.096,inactive: -0.009,inactive: 0.021,inactive: -0.059,inactive: 0.015,inactive: 0.033,inactive: 0.007,inactive: -0.019,inactive: 0.001
MPZL1 (UniProt O95297),inactive: -0.035,inactive: -0.011,inactive: -0.026,inactive: 0.013,inactive: -0.012,inactive: -0.027,inactive: -0.068,inactive: -0.005,inactive: -0.03,inactive: 0.011
MRPL12 (UniProt P52815),inactive: 0.035,inactive: -0.061,inactive: -0.038,inactive: -0.017,inactive: 0.067,inactive: 0.126,inactive: -0.022,inactive: 0.083,inactive: -0.007,inactive: 0.016
MRPL52 (UniProt Q86TS9),inactive: -0.003,,,,,,,,,
MRPL23 (UniProt Q16540),inactive: 0.054,inactive: -0.003,inactive: -0.044,inactive: -0.066,inactive: 0.204,inactive: -0.135,inactive: -0.1,inactive: 0.109,inactive: 0.021,inactive: -0.09
MRPL18 (UniProt Q9H0U6),inactive: 0.057,inactive: -0.048,inactive: -0.048,inactive: -0.112,inactive: 0.21,inactive: -0.197,inactive: -0.059,inactive: 0.089,inactive: 0.049,inactive: -0.022
MRM3 (UniProt Q9HC36),inactive: -0.034,inactive: 0.111,inactive: 0.022,inactive: -0.114,inactive: 0.304,inactive: -0.141,inactive: -0.078,inactive: 0.071,inactive: 0.092,inactive: -0.111
MRPL39 (UniProt Q9NYK5),inactive: 0.028,inactive: -0.049,inactive: -0.076,inactive: -0.048,inactive: 0.142,inactive: -0.029,inactive: 0.008,inactive: -0.067,inactive: -0.002,inactive: -0.007
MICALL1 (UniProt Q8N3F8),inactive: -0.04,inactive: -0.009,inactive: -0.042,inactive: -0.069,inactive: -0.015,inactive: 0,inactive: -0.109,inactive: 0.194,inactive: 0.063,
